From PMC9348664
Results are given in words; binding and its absence hold for the method and conditions named. For some assays here: In cells and extracts the contact can be indirect. Some entries that bind do so weakly or less than the wild type.

Chains of the proteins cited; added tags and fusions are not shown.
UniProt Q16877: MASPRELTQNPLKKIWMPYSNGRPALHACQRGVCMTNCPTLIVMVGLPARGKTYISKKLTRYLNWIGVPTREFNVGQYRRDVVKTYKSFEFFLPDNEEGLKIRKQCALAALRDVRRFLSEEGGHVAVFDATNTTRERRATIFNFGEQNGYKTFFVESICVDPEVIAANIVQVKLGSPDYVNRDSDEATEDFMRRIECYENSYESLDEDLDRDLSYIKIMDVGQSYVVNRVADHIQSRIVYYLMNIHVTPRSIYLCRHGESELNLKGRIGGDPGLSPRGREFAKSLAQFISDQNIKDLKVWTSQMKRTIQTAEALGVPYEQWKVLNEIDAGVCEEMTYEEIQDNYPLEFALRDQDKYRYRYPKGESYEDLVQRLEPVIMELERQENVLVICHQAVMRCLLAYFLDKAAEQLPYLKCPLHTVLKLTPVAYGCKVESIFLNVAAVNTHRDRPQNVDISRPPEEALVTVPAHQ
UniProt O60725: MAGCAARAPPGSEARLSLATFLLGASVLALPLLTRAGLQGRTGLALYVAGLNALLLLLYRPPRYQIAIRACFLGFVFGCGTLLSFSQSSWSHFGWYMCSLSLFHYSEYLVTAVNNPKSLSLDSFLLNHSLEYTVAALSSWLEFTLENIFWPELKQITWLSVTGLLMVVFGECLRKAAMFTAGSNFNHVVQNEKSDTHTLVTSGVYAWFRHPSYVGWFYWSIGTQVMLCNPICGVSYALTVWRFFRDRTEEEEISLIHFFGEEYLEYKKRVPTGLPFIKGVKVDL

Legend:
[1] = target: FLAG-tagged human PFKFB4 (human) (UniProt Q16877); experiment: co-IP; FLAG-M2 magnetic beads on lysate of transfected MeWo cells (100 mM NaCl, 0.5% NP-40, 20 mM Tris-HCl pH 7.5, 5 mM MgCl2), overnight at 4°C; Western blotting; for ICMT and RAS with or without PFKFB4 depletion by siRNA
ICMT-Cub-GAL4 (human) = ICMT-Cub-GAL4 (human) (UniProt O60725); experiment: two-hybrid; MaMTH (mammalian membrane split-ubiquitin two-hybrid) in MaMTH-modified HEK293T cells; bait fused to Cub-GAL4, prey fused to Nub; GAL4-driven luciferase normalised to Renilla

binding [1]	binding (ICMT-Cub-GAL4 (human))	Substance
binds	–	ICMT tagged with V5 (from UniProt O60725 1-284) (enzyme)
–	binds	human PFKFB4 as MaMTH fusions (PFKFB4-Cub-GAL4 bait; PFKFB4-Nub prey) (from UniProt Q16877 1-469) (enzyme)
